The results in this text go back to paper PMC11894219.

Chains of the proteins cited; added tags and fusions are not shown.
UniProt P54132: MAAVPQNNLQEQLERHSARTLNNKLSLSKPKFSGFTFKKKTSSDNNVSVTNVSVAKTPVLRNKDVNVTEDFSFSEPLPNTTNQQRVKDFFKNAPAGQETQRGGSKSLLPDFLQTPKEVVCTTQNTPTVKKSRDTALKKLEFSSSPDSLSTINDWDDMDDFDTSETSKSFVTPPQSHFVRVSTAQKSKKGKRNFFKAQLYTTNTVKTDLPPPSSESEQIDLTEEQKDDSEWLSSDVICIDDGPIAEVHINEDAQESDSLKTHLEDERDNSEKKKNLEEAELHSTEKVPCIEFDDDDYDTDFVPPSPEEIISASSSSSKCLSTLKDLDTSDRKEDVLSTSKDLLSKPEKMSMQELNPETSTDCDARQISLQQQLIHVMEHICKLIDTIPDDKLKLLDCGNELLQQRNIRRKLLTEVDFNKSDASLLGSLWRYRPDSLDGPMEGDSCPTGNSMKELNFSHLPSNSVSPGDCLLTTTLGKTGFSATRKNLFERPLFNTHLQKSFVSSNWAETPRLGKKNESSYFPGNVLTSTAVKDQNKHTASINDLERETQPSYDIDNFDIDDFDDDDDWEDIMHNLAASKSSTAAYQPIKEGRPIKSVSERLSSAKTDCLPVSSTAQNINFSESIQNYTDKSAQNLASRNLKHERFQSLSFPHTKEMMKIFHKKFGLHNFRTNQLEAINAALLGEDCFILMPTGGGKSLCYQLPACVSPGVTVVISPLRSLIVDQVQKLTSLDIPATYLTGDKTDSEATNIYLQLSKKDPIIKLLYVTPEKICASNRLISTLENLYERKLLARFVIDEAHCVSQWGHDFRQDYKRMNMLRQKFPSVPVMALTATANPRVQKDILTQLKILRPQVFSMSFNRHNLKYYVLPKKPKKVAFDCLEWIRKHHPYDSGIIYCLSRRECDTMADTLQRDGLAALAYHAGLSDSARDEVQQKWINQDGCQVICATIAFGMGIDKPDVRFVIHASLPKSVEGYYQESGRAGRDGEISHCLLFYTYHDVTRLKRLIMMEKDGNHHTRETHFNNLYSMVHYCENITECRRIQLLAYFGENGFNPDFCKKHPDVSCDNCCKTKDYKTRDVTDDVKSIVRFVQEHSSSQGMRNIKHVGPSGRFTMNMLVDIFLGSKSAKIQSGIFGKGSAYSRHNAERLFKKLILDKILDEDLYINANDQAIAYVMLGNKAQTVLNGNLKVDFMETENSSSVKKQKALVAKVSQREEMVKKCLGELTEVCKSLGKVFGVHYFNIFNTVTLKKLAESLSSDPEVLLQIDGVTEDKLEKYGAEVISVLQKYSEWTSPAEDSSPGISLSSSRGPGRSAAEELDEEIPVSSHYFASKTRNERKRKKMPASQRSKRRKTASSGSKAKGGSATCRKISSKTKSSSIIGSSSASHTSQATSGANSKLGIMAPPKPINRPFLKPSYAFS

The target of experiment [1] is FLAG-miniTurbo-BLM (human) (UniProt P54132). The experiment in a line: co-IP; whole-cell extract of mT-FLAG-BLM HEK293 cells with or without doxycycline; anti-FLAG precipitation; blot for FLAG and RAD54L2.
Experiment [2] addresses FLAG-BirA*-BLM (human) (UniProt P54132). The experiment can be described thus: co-IP; nuclear extract (250 mM NaCl) of BirA*FLAG-BLM HEK293 cells with or without doxycycline; anti-FLAG precipitation; blot for BLM and RAD54L2.

No constants are given. Whether binding was seen depends on the method and setting. Binding seen in cells or lysates may run through a third protein. Some binding calls cover weakened binding; strength is not graded here.

B1: RAD54L2 (protein, UniProt Q9Y4B4 1-1467)
chain: MSDESASGSDPDLDPDVELEDAEEEEEEEEVAVEECDRDDEEDLLDDPSLEGMCGTEHAQLGEDGQQPPRCTSTTSSQSEPSEQLRRHQGKNLASEDPKKKRAQKPSHMRRNIRKLLREDQLEPVTKAAQQEELERRKRLEQQRKDYAAPIPTVPLEFLPEEIALRASDGPQLPPRVLAQEVICLDSSSGSEDEKSSRDEVIELSSGEEDTLHIVDSSESVSEDDEEEEKGGTHVNDVLNQRDALGRVLVNLNHPPEEENVFLAPQLARAVKPHQIGGIRFLYDNLVESLERFKTSSGFGCILAHSMGLGKTLQVISFIDVLFRHTPAKTVLAIVPVNTLQNWLAEFNMWLPPPEALPADNKPEEVQPRFFKVHILNDEHKTMASRAKVMADWVSEGGVLLMGYEMYRLLTLKKSFATGRPKKTKKRSHPVIIDLDEEDRQQEFRREFEKALCRPGPDVVICDEGHRIKNCQASTSQALKNIRSRRRVVLTGYPLQNNLIEYWCMVDFVRPDFLGTRQEFSNMFERPILNGQCIDSTPQDVRLMRYRSHVLHSLLEGFVQRRGHTVLKIHLPAKEENVILVRLSKIQRDLYTQFMDRFRDCGSSGWLGLNPLKAFCVCCKIWNHPDVLYEALQKESLANEQDLDVEELGSAGTSARCPPQGTKGKGEDSTLASSMGEATNSKFLQGVGFNPFQERGNNIVTYEWAKDLLTNYQTGVLENSPKMVLLFHLIEESVKLGDKILVFSQSLSTLALIEEFLGKREVPCPPGTEGQGAQKWVRNISYFRLDGSTPAFERERLINQFNDPSNLTTWLFLLSTRAGCLGVNLIGANRVVVFDASWNPCHDAQAVCRVYRYGQKKPCYIYRLVADYTLEKKIYDRQISKQGMSDRVVDDLNPMLNFTRKEVENLLHFVEKEPAPQVSLNVKGIKESVLQLACLKYPHLITKEPFEHESLLLNRKDHKLTKAEKKAAKKSYEEDKRTSVPYTRPSYAQYYPASDQSLTSIPAFSQRNWQPTLKGDEKPVASVRPVQSTPIPMMPRHVPLGGSVSSASSTNPSMNFPINYLQRAGVLVQKVVTTTDIVIPGLNSSTDVQARINAGESIHIIRGTKGTYIRTSDGRIFAVRATGKPKVPEDGRMAASGSQGPSCESTSNGRHSASSPKAPDPEGLARPVSPDSPEIISELQQYADVAAARESRQSSPSTNAALPGPPAQLMDSSAVPGTALGTEPRLGGHCLNSSLLVTGQPCGDRHPVLDLRGHKRKLATPPAAQESSRRRSRKGHLPAPVQPYEHGYPVSGGFAMPPVSLNHNLTTPFTSQAGENSLFMGSTPSYYQLSNLLADARLVFPVTTDPLVPAGPVSSSSTATSVTASNPSFMLNPSVPGILPSYSLPFSQPLLSEPRMFAPFPSPVLPSNLSRGMSIYPGYMSPHAGYPAGGLLRSQVPPFDSHEVAEVGFSSNDDEDKDDDVIEVTGK
In the case of B1, the binding entry in experiment [1] and in experiment [2] was “binds” in each case.
